Results are given in words; binding and its absence hold for the method and conditions named. Binding seen in cells or lysates may run through a third protein. Some binding calls cover weakened binding; strength is not graded here. Where a sequence is shown, tags or fusion partners need not be part of it.
Biological target: T1, Apaf-1 fused to an N-terminal fragment of luciferase / Apaf-1 fused to a C-terminal fragment of luciferase, O14727
T1 chain: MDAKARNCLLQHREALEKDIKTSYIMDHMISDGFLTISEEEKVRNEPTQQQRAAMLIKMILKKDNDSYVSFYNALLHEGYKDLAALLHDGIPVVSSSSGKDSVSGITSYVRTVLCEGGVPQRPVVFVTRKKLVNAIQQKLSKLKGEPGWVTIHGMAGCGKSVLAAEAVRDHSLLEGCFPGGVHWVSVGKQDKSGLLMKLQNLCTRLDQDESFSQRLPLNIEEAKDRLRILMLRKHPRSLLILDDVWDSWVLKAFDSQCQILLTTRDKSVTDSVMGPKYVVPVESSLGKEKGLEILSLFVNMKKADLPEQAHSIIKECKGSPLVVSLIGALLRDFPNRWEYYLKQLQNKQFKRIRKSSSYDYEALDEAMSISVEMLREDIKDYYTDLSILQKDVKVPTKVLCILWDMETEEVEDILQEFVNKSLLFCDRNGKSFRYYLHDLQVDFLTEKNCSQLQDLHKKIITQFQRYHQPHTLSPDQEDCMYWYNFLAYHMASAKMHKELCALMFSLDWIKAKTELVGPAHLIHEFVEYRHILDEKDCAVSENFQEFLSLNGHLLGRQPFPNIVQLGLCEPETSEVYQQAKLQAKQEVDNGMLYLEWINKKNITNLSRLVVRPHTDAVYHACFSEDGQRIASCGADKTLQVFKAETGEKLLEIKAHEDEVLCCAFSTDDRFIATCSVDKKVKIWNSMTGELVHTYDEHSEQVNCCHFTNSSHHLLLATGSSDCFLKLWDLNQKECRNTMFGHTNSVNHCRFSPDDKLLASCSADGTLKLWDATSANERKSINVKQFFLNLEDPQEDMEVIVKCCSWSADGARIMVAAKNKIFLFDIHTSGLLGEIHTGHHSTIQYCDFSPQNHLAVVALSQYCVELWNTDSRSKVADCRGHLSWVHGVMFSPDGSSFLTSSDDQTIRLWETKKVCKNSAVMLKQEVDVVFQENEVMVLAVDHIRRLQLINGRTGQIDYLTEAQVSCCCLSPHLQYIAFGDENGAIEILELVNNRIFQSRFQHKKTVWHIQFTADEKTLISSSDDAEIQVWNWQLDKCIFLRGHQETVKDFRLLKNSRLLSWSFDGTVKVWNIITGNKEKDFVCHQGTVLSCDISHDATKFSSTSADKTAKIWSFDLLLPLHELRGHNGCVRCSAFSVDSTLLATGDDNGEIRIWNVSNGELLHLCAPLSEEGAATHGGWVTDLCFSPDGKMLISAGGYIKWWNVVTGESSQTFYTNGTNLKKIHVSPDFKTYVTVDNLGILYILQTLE
Assay: split reporter; split luciferase complementation; ice cold extracts from N-luc and C-luc expressing cells (5 µL of each) mixed; cytochrome c 1.6 µM and dATP 1 mM added, then One-Glo luciferase assay system; light read at 25 °C over 15 min
Details: remark: other sources report otherwise

B1: Apaf-1 fused to an N-terminal fragment of luciferase / Apaf-1 fused to a C-terminal fragment of luciferase, O14727 1-1248 (protein)
chain: T1 chain
binding: binds

— PMC7198528
